From patent publication US20160199463A1, “HDAC2 DEFENDS VASCULAR ENDOTHELIUM FROM INJURY” (The Johns Hopkins University, priority 2014, published 2016)

Tested on: Arg2
Experiment: Arg2 protein expression in HAECs (Western blot)
Type: cell-based, human
Experimental: After 48 hrs of HAEC cells transfection, cells were lysed in ice cold RIPA lysis buffer consisting of 20 mM Tris-HCl at pH 7.5, 150 mM NaCl, 1 mM EDTA, 1 mM EGTA, 1% NP40, 1% sodium deoxycholate, 1 mM Na3VO4, 2.5 mM sodium pyrophosphate, 1 mM 3-glycerophosphate, 1 μg/mL leupeptin, and a 1:1000 diluted protease inhibitor cocktail (Sigma). For immunoprecipitation studies, whole cell lysate lysates were centrifuged at 14,000×g and supernatants were precleared by incubation with Protein A/G-agarose beads for 2 h at 4° C. with rocking. Agarose beads were then pelleted by centrifugation at 1,000×g. FLAG-Arg2 in precleared lysates were immunoprecipitated by incubation overnight at 4° C. with rocking following addition of anti-FLAG antibody (10 μl). Immune complexes were eluted in 2×SDS sample buffer by boiling for 5 minutes before loading into SDS-PAGE. Western blotting analysis was performed by transferring the SDS gel onto a PVDF membrane and visualized using secondary antibodies conjugated to alkaline phosphatases.

In the case of `O=C(CCCCCCC(=O)Nc1ccccc1)NO` [SAHA, Suberoylanilide Hydroxamic Acid], the “Arg2 expression, broad-spectrum HDAC inhibitors” value is reported as “upregulated”.
